Reference: the supplement of paper PMC12823440, “Inhibitors supercharge kinase turnover through native proteolytic circuits” (Nature, 2025)
Counter-ions that a name gives are not always drawn. The list shows a part of the results. The calls rarely recur for the same compound in another form.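 Kinases were expressed as nanoluciferase fusions in K562 cells and luminescence was read every 4 h between 2 and 18 h as percent of control, DMSO set to 100% and a positive control to 0%. A time point counts as decreased when the signal drops significantly (2 sigma). The hit call is the authors' own, does not follow from the count of time points alone, and its rule is not shown.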

Sequences of proteins named here, by UniProt entry; tags and fusion partners are left off. A change or cut given only in a name is not applied to a line headed by its entry.
UniProt O15530: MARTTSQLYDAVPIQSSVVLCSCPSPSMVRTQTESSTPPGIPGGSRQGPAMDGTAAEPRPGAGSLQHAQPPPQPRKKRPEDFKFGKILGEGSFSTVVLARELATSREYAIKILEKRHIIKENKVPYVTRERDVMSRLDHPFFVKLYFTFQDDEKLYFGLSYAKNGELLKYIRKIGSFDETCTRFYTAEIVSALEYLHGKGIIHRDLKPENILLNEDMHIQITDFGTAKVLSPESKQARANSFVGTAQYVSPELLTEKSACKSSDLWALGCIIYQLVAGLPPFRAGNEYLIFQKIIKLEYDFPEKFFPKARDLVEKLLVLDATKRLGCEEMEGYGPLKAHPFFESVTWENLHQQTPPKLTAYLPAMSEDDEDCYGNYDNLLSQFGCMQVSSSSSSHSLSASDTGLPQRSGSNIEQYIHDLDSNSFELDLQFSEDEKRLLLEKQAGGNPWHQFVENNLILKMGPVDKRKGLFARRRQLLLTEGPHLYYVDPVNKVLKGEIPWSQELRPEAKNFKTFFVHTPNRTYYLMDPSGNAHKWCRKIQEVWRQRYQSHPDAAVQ
UniProt P53350, whole entry: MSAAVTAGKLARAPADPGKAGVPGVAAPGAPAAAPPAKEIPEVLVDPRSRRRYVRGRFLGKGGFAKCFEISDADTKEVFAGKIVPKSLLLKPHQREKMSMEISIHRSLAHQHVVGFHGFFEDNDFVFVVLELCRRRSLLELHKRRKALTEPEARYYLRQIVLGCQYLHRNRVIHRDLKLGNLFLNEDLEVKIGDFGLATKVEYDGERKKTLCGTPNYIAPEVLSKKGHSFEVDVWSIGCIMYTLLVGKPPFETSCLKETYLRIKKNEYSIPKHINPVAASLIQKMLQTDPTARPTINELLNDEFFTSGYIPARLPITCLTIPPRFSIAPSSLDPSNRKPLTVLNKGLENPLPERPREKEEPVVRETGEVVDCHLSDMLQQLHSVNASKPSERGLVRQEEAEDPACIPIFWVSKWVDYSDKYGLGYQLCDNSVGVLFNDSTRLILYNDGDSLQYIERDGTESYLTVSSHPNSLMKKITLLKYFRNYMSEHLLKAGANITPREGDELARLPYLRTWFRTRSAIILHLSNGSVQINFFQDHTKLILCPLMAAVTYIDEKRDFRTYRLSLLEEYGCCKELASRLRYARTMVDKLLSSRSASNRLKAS
UniProt Q13131: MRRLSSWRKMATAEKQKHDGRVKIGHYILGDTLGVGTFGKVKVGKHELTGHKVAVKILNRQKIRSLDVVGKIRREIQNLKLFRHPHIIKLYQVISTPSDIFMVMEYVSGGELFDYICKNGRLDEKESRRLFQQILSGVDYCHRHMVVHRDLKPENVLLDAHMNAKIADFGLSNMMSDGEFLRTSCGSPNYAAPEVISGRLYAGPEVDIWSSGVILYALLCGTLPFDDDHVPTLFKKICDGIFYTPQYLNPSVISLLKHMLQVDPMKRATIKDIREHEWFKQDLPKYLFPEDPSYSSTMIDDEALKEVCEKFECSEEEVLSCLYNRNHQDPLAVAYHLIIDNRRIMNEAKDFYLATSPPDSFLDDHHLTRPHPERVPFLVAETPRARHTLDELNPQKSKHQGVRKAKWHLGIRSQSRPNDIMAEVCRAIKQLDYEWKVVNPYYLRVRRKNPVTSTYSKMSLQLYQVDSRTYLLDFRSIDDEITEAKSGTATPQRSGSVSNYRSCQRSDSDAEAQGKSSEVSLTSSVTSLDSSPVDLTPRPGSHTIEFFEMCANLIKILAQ
UniProt Q05397, whole entry, looked up: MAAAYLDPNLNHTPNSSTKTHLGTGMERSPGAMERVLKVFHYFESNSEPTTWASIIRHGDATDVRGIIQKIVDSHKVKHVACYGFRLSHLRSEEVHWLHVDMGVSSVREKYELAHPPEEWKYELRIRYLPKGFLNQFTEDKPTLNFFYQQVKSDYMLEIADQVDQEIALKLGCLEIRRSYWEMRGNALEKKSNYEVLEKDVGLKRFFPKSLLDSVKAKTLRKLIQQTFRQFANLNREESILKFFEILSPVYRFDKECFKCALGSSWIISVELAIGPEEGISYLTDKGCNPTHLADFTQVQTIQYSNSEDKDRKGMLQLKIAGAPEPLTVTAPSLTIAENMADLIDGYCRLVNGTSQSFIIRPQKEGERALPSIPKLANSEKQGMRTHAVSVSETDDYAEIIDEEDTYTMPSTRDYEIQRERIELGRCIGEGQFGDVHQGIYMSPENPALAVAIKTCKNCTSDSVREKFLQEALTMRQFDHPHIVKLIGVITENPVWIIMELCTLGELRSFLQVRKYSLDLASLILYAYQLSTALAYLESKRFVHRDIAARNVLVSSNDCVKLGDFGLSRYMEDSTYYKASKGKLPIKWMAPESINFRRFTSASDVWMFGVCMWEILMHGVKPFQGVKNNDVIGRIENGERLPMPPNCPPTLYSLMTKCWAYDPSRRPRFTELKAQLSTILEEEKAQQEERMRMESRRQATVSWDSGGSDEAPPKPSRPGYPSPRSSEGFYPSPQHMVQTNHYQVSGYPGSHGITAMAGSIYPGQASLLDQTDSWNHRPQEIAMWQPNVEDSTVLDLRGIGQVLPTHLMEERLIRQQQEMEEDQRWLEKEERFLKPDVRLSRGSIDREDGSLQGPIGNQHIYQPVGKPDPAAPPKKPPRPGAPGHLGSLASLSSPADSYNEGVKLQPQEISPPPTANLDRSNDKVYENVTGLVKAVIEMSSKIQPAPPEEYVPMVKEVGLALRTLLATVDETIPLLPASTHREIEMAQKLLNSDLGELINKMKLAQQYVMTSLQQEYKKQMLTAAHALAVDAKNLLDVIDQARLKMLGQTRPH
UniProt Q14289, whole entry, looked up: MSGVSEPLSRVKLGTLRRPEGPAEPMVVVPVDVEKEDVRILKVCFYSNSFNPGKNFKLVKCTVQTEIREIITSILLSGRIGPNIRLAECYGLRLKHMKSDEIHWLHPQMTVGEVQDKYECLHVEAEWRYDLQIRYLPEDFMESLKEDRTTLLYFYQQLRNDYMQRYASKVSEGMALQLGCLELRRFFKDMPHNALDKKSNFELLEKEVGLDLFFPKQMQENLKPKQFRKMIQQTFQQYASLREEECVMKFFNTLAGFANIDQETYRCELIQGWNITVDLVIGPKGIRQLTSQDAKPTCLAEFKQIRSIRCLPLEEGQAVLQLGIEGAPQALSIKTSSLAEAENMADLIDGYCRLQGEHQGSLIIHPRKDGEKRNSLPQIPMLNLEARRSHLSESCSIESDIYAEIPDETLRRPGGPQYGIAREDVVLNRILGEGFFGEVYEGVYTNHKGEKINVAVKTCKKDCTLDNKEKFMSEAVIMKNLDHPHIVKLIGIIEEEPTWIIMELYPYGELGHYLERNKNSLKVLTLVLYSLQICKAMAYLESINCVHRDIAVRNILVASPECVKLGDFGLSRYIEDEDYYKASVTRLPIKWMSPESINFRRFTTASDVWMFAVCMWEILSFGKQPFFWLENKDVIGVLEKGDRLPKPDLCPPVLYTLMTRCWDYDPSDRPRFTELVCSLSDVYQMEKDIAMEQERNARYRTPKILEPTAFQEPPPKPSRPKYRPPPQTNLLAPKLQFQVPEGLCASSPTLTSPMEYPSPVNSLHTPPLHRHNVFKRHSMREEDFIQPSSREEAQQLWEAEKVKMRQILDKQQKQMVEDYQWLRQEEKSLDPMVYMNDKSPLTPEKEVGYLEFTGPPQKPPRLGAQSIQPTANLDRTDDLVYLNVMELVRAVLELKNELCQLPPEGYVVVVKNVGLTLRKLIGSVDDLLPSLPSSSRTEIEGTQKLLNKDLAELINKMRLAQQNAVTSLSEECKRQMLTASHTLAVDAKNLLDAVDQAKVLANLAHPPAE
UniProt Q9BRS2: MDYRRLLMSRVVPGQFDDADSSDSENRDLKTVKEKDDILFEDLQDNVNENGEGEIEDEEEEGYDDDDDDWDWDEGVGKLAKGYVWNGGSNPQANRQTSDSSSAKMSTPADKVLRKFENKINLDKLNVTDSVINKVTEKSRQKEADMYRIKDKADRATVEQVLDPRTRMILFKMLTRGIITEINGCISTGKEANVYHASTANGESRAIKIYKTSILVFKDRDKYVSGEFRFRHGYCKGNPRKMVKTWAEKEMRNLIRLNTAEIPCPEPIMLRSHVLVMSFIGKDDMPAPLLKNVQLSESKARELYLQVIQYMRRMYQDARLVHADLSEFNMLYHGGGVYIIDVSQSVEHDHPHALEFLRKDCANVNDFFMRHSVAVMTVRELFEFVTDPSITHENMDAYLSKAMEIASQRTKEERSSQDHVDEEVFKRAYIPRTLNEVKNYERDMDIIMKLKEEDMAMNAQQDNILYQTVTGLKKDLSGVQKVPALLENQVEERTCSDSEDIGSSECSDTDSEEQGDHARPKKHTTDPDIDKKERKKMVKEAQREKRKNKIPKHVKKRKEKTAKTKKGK
UniProt Q13546: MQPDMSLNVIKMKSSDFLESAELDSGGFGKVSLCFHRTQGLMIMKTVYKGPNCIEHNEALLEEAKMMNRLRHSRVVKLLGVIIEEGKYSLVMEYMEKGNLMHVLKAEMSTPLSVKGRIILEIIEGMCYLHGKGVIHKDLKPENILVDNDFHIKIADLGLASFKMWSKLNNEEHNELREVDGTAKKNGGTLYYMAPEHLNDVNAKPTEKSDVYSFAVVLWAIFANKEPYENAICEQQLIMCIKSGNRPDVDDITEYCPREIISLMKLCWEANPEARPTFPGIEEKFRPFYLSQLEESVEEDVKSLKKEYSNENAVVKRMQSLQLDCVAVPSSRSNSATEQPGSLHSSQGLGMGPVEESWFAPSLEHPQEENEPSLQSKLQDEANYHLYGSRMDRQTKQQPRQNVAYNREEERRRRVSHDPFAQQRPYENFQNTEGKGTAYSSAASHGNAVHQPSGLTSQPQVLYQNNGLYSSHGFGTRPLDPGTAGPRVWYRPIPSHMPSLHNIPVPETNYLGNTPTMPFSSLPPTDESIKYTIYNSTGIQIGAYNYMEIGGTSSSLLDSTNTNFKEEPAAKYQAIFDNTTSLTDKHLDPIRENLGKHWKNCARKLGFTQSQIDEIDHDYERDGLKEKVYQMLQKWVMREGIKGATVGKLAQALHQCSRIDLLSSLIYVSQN
UniProt Q9NYA1, whole entry: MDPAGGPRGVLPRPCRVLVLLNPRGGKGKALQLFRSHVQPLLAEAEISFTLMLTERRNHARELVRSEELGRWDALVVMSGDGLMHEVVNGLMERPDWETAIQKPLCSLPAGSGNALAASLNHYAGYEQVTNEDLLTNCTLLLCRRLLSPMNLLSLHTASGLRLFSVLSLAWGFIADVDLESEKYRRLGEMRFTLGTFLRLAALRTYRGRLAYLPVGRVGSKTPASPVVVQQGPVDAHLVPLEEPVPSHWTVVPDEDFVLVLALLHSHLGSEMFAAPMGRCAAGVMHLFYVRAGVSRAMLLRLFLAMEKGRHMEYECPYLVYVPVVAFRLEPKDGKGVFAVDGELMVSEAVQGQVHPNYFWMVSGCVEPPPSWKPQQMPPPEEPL
UniProt Q9Y6E0: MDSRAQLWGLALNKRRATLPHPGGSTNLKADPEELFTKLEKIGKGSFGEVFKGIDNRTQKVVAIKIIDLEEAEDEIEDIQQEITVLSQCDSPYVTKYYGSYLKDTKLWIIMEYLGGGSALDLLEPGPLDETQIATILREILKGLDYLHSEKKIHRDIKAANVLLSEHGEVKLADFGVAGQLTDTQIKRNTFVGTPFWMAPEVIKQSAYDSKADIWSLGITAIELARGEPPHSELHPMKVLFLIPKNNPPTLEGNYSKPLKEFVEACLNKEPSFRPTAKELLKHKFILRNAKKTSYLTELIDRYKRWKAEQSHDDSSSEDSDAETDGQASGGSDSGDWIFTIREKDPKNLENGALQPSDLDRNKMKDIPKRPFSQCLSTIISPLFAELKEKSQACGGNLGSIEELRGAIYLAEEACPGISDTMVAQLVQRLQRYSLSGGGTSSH

What was measured:
Test in all cases: kinase-Nluc reporter destabilization hit call (1 = scored as downregulated) (binary); higher = compound decreases kinase abundance
Conditions in all cases: K562; 2-18 h
PDPK1 = PDPK1 (UniProt O15530)
PIK4CA = PIK4CA (UniProt P42356)
PIK4CB = PIK4CB (UniProt Q9UBF8)
PLK1 = PLK1 (UniProt P53350)
PRKAA1 = PRKAA1 (UniProt Q13131)
PRKCA = PRKCA (UniProt P17252)
PTK2 = PTK2 (UniProt Q05397)
PTK2B = PTK2B (UniProt Q14289)
RAF1 = RAF1 (UniProt P04049)
[1] = biological target: RAF1_S257L (clone: RAF1_mut) (UniProt P04049)
RET = RET (UniProt P07949)
[2] = biological target: RET_M918T (clone: RET_mut) (UniProt P07949)
RIOK1 = RIOK1 (UniProt Q9BRS2)
RIPK1 = RIPK1 (UniProt Q13546)
RIPK2 = RIPK2 (UniProt O43353)
ROR2 = ROR2 (UniProt Q01974)
RPS6KA1 = RPS6KA1 (UniProt Q15418)
SPHK1 = SPHK1 (UniProt Q9NYA1)
SRC = SRC (UniProt P12931)
STK24 = STK24 (UniProt Q9Y6E0)

Measured: kinase-Nluc reporter destabilization hit call

CNC(=O)c1ccc2c(c1)ncn2-c1ccc(CC(=O)OC(C)(C)C)cc1 (10 µM)
inactive: PDPK1 = 0 | PIK4CA 0 | PIK4CB 0 | PLK1 = 0 | PRKAA1 = 0 | PRKCA 0 | PTK2 = 0 | PTK2B 0 | RAF1 = 0 | [1] 0 | RET 0 | [2] 0 | RIOK1 = 0 | RIPK1 = 0 | RIPK2 = 0 | ROR2 = 0 | RPS6KA1 = 0 | SPHK1 = 0 | SRC 0 | STK24 = 0

O=C(NCCN1CCOCC1)Nc1nc2ccc(Sc3nnc4ccc(-c5ccc(F)cc5)nn34)cc2s1 (10 µM)
inactive: PDPK1 = 0 | PIK4CA 0 | PIK4CB 0 | PLK1 = 0 | PRKAA1 = 0 | PRKCA 0 | PTK2 = 0 | PTK2B 0 | RAF1 = 0 | [1] 0 | RET 0 | [2] 0 | RIOK1 = 0 | RIPK1 = 0 | RIPK2 = 0 | ROR2 = 0 | RPS6KA1 = 0 | SPHK1 = 0 | SRC 0 | STK24 = 0

CCN(CC)CCCC(C)Nc1nc(C)cc(Nc2ccc3nc(C)cc(N)c3c2)n1 (stereo not given) (10 µM)
inactive: PDPK1 = 0 | PIK4CA 0 | PIK4CB 0 | PLK1 = 0 | PRKAA1 = 0 | PRKCA 0 | PTK2 = 0 | PTK2B 0 | RAF1 = 0 | [1] 0 | RET 0 | [2] 0 | RIOK1 = 0 | RIPK1 = 0 | RIPK2 = 0 | ROR2 = 0 | RPS6KA1 = 0 | SPHK1 = 0 | SRC 0 | STK24 = 0

Cc1cccc(-c2[nH]ncc2-c2ccnc3ccccc23)n1 (10 µM)
inactive: PDPK1 = 0 | PIK4CA 0 | PIK4CB 0 | PLK1 = 0 | PRKAA1 = 0 | PRKCA 0 | PTK2 = 0 | PTK2B 0 | RAF1 = 0 | [1] 0 | RET 0 | [2] 0 | RIOK1 = 0 | RIPK1 = 0 | RIPK2 = 0 | ROR2 = 0 | RPS6KA1 = 0 | SPHK1 = 0 | SRC 0 | STK24 = 0

Looked up by structure from the entries so far (two):
Cc1cccc(-c2[nH]ncc2-c2ccnc3ccccc23)n1 (10 µM)
inactive: PDPK1 = 0 | PIK4CA 0 | PIK4CB 0 | PLK1 = 0 | PRKAA1 = 0 | PRKCA 0 | PTK2 = 0 | PTK2B 0 | RAF1 = 0 | [1] 0 | RET 0 | [2] 0 | RIOK1 = 0 | RIPK1 = 0 | RIPK2 = 0 | ROR2 = 0 | RPS6KA1 = 0 | SPHK1 = 0 | SRC 0 | STK24 = 0

CNC(=O)c1ccc2c(c1)ncn2-c1ccc(CC(=O)OC(C)(C)C)cc1 (10 µM)
inactive: PDPK1 = 0 | PIK4CA 0 | PIK4CB 0 | PLK1 = 0 | PRKAA1 = 0 | PRKCA 0 | PTK2 = 0 | PTK2B 0 | RAF1 = 0 | [1] 0 | RET 0 | [2] 0 | RIOK1 = 0 | RIPK1 = 0 | RIPK2 = 0 | ROR2 = 0 | RPS6KA1 = 0 | SPHK1 = 0 | SRC 0 | STK24 = 0

Carrying on.

C[C@H]1O[C@@H](O[C@H]2CC[C@@]3(C)[C@@H](CC[C@]4(C)[C@@H]3C=C[C@]35OC[C@@]6(CCC(C)(C)C[C@H]63)[C@H](O)C[C@]54C)[C@]2(C)CO)[C@H](O)[C@@H](O[C@@H]2O[C@H](CO)[C@@H](O)[C@H](O)[C@H]2O)[C@H]1O [Saikosaponin D] (2.5 µM)
inactive: PDPK1 = 0 | PIK4CA 0 | PIK4CB 0 | PLK1 = 0 | PRKAA1 = 0 | PRKCA 0 | PTK2 = 0 | PTK2B 0 | RAF1 = 0 | [1] 0 | RET 0 | [2] 0 | RIOK1 = 0 | RIPK1 = 0 | RIPK2 = 0 | ROR2 = 0 | RPS6KA1 = 0 | SPHK1 = 0 | SRC 0 | STK24 = 0

O=C1NC(=O)/C(=C\c2c[nH]c(=O)c(-c3ccc(N4CCNCC4)nc3)c2)S1 [Protein kinase inhibitors 1 hydrochloride] (10 µM)
inactive: PDPK1 = 0 | PIK4CA 0 | PIK4CB 0 | PLK1 = 0 | PRKAA1 = 0 | PRKCA 0 | PTK2 = 0 | PTK2B 0 | RAF1 = 0 | [1] 0 | RET 0 | [2] 0 | RIOK1 = 0 | RIPK1 = 0 | RIPK2 = 0 | ROR2 = 0 | RPS6KA1 = 0 | SPHK1 = 0 | SRC 0 | STK24 = 0

Cc1cc(Nc2cc(N3CCN(C)CC3)nc(Nc3ccc([N+](=O)[O-])cc3)n2)n[nH]1 (2.5 µM)
inactive: PDPK1 = 0 | PIK4CA 0 | PIK4CB 0 | PLK1 = 0 | PRKAA1 = 0 | PRKCA 0 | PTK2 = 0 | PTK2B 0 | RAF1 = 0 | [1] 0 | RET 0 | [2] 0 | RIOK1 = 0 | RIPK1 = 0 | RIPK2 = 0 | ROR2 = 0 | RPS6KA1 = 0 | SPHK1 = 0 | SRC 0 | STK24 = 0

Cc1c(C)c(NCC(=O)N(C)C2CCN(Cc3ccc(C(N)=O)cc3)CC2)c(C)c(C)c1N (10 µM)
inactive: PDPK1 = 0 | PIK4CA 0 | PIK4CB 0 | PLK1 = 0 | PRKAA1 = 0 | PRKCA 0 | PTK2 = 0 | PTK2B 0 | RAF1 = 0 | [1] 0 | RET 0 | [2] 0 | RIOK1 = 0 | RIPK1 = 0 | RIPK2 = 0 | ROR2 = 0 | RPS6KA1 = 0 | SPHK1 = 0 | SRC 0 | STK24 = 0

CC(C)=CCC/C(C)=C/CC/C(C)=C/C=C/C(C)=C/C(=O)O [Peretinoin] (10 µM)
inactive: PDPK1 = 0 | PIK4CA 0 | PIK4CB 0 | PLK1 = 0 | PRKAA1 = 0 | PRKCA 0 | PTK2 = 0 | PTK2B 0 | RAF1 = 0 | [1] 0 | RET 0 | [2] 0 | RIOK1 = 0 | RIPK1 = 0 | RIPK2 = 0 | ROR2 = 0 | RPS6KA1 = 0 | SPHK1 = 0 | SRC 0 | STK24 = 0

NC(=O)c1cnc(-c2ccc(C3(N)CCC3)cc2)c(-c2ccccc2)c1 (10 µM)
inactive: PDPK1 = 0 | PIK4CA 0 | PIK4CB 0 | PLK1 = 0 | PRKAA1 = 0 | PRKCA 0 | PTK2 = 0 | PTK2B 0 | RAF1 = 0 | [1] 0 | RET 0 | [2] 0 | RIOK1 = 0 | RIPK1 = 0 | RIPK2 = 0 | ROR2 = 0 | RPS6KA1 = 0 | SPHK1 = 0 | SRC 0 | STK24 = 0

COc1cc2ncnc(Oc3ccc(CC(=O)Nc4cnn(C(C)C)c4)cc3)c2cc1OC (10 µM)
inactive: PDPK1 = 0 | PIK4CA 0 | PIK4CB 0 | PLK1 = 0 | PRKAA1 = 0 | PRKCA 0 | PTK2 = 0 | PTK2B 0 | RAF1 = 0 | [1] 0 | RET 0 | [2] 0 | RIOK1 = 0 | RIPK1 = 0 | RIPK2 = 0 | ROR2 = 0 | RPS6KA1 = 0 | SPHK1 = 0 | SRC 0 | STK24 = 0

N#Cc1ccc(-c2cnc3ccc(-c4ccc(C(=O)N5CCOCC5)cc4)cn23)cc1 (10 µM)
inactive: PDPK1 = 0 | PIK4CA 0 | PIK4CB 0 | PLK1 = 0 | PRKAA1 = 0 | PRKCA 0 | PTK2 = 0 | PTK2B 0 | RAF1 = 0 | [1] 0 | RET 0 | [2] 0 | RIOK1 = 0 | RIPK1 = 0 | RIPK2 = 0 | ROR2 = 0 | RPS6KA1 = 0 | SPHK1 = 0 | SRC 0 | STK24 = 0

c1nn(C2CCOCC2)cc1Nc1ncc2nnn(-c3ccc4cn[nH]c4c3)c2n1 (10 µM)
inactive: PDPK1 = 0 | PIK4CA 0 | PIK4CB 0 | PLK1 = 0 | PRKAA1 = 0 | PRKCA 0 | PTK2 = 0 | PTK2B 0 | RAF1 = 0 | [1] 0 | RET 0 | [2] 0 | RIOK1 = 0 | RIPK1 = 0 | RIPK2 = 0 | ROR2 = 0 | RPS6KA1 = 0 | SPHK1 = 0 | SRC 0 | STK24 = 0

CC(C)=CC[C@@H](O)C1=CC(=O)c2c(O)ccc(O)c2C1=O [Shikonin] (10 µM)
inactive: PDPK1 = 0 | PIK4CA 0 | PIK4CB 0 | PLK1 = 0 | PRKAA1 = 0 | PRKCA 0 | PTK2 = 0 | PTK2B 0 | RAF1 = 0 | [1] 0 | RET 0 | [2] 0 | RIOK1 = 0 | RIPK1 = 0 | RIPK2 = 0 | ROR2 = 0 | RPS6KA1 = 0 | SPHK1 = 0 | SRC 0 | STK24 = 0

N#Cc1cnc2c(Cl)cc(NCc3cn(CCN4CCCCCC4)nn3)cc2c1Nc1ccc(F)c(Cl)c1 [Cot inhibitor-1] (10 µM)
inactive: PDPK1 = 0 | PIK4CA 0 | PIK4CB 0 | PLK1 = 0 | PRKAA1 = 0 | PRKCA 0 | PTK2 = 0 | PTK2B 0 | RAF1 = 0 | [1] 0 | RET 0 | [2] 0 | RIOK1 = 0 | RIPK1 = 0 | RIPK2 = 0 | ROR2 = 0 | RPS6KA1 = 0 | SPHK1 = 0 | SRC 0 | STK24 = 0

CCc1c[nH]c2ncnc(N3CC[C@](N)(CNC(=O)c4ccc(F)cc4F)C3)c12 (10 µM)
inactive: PDPK1 = 0 | PIK4CA 0 | PIK4CB 0 | PLK1 = 0 | PRKAA1 = 0 | PRKCA 0 | PTK2 = 0 | PTK2B 0 | RAF1 = 0 | [1] 0 | RET 0 | [2] 0 | RIOK1 = 0 | RIPK1 = 0 | RIPK2 = 0 | ROR2 = 0 | RPS6KA1 = 0 | SPHK1 = 0 | SRC 0 | STK24 = 0

Cn1cc(-c2cc(Oc3cc(F)c(NC(=O)C4(C(=O)Nc5ccccc5)CC4)cc3F)ccn2)cn1 (2.5 µM)
inactive: PDPK1 = 0 | PIK4CA 0 | PIK4CB 0 | PLK1 = 0 | PRKAA1 = 0 | PRKCA 0 | PTK2 = 0 | PTK2B 0 | RAF1 = 0 | [1] 0 | RET 0 | [2] 0 | RIOK1 = 0 | RIPK1 = 0 | RIPK2 = 0 | ROR2 = 0 | RPS6KA1 = 0 | SPHK1 = 0 | SRC 0 | STK24 = 0
